Reference: PubChem BioAssay AID1053208 (Peter MacCallum Cancer Centre, 2014)
Shown is a random part of about 17,000 reagents tested. 788 of them (4.7%) were called active. 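Calls rest on z-score classes alone; an extra cut-off of viability at most 70% of control was not applied to them.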 Unmarked entries are inactive. Reagent sequences are not shown.

- Screen: 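Genes whose silencing cuts survival of bone tumour cells only with doxorubicin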 (primary screen)
- Cells: mouse osteosarcoma cells, early-passage culture from an engineered mouse model of fibroblastic bone tumour
- Knock-down reagent: siRNA pool against mouse genes, 40 nM
- Time to read-out: about 120 h (48 h before drug, then 72 h with drug)
- Challenge: doxorubicin 100 nM for 72 h, roughly 30-40% inhibitory dose
- Detection: 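Viability read as ATP luminescence after 72 h of 100 nM doxorubicin or none, duplicate wells averaged, scaled to non-targeting siRNA, then expressed as robust z-scores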
- Scale: viability z-score with doxorubicin and doxorubicin viability vs non-targeting: higher = more viable cells under doxorubicin; viability z-score without drug: higher = more viable cells with knock-down alone; z-score of drug to no-drug ratio: higher = less drug sensitisation by knock-down
- Rule for the call: 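a pool counts as active when its viability z-score with doxorubicin is -2 or below and its z-score without drug lies between -2 and 2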

target | combined z-score class | viability z-score with doxorubicin | viability z-score without drug | z-score of drug to no-drug ratio | doxorubicin viability vs non-targeting
Ppp4r1 (GeneID 70351) | no change with or without drug | 1.35 | 0.51 | 1.12 | 1.06
Or4p18 (GeneID 258919) | no change with or without drug | -1.35 | -0.17 | -1.24 | 0.82
Ptger1 (GeneID 19216) | no change with or without drug | 1.12 | 0.84 | 0.67 | 1.04
Lpar3 (GeneID 65086) | no change with or without drug | -0.67 | -1.01 | 0.11 | 0.88
Mcpt4 (GeneID 17227) | no change with or without drug | -1.57 | 1.18 | -2.25 | 0.8
Neto1 (GeneID 246317) | no change with or without drug | 0.9 | -0.84 | 1.69 | 1.02
P2rx3 (GeneID 228139) | no change with or without drug | -0.22 | -1.18 | 0.79 | 0.92
Slc25a25 (GeneID 227731) | no change with or without drug | 0.45 | -0.51 | 1.01 | 0.98
Tmem223 (GeneID 66836) | high cell count with doxorubicin only | 2.59 | 0.84 | 2.14 | 1.17
Kmt2b (GeneID 75410) | no change with or without drug | 0.56 | -0.17 | 0.79 | 0.99
Crppa (GeneID 75847) | low cell count without drug only | -1.12 | -2.53 | 0.79 | 0.84
Glcci1 (GeneID 170772) | no change with or without drug | 0.79 | 1.18 | 0.11 | 1.01
Pla2g5 (GeneID 18784) | no change with or without drug | 1.12 | 0.84 | 0.67 | 1.04
Npc1l1 (GeneID 237636) | no change with or without drug | -1.8 | -0.67 | -1.35 | 0.78
Rnase2b (GeneID 54159) | high cell count without drug only | 1.12 | 3.54 | -0.9 | 1.04
Paqr9 (GeneID 75552) | high cell count without drug only | 0.22 | 2.53 | -1.24 | 0.96
Socs1 (GeneID 12703) | high cell count with and without drug | 2.25 | 2.19 | 0.9 | 1.14
Tmem150a (GeneID 232086) | no change with or without drug | -1.01 | -0.17 | -0.9 | 0.85
Apaf1 (GeneID 11783) | no change with or without drug | -0.45 | -0.17 | -0.22 | 0.9
Cd36 (GeneID 12491) | no change with or without drug | 0 | -0.34 | 0.34 | 0.94
Wif1 (GeneID 24117) | no change with or without drug | 0.34 | 0.84 | -0.11 | 0.97
Atp6v0b (GeneID 114143) | no change with or without drug | -0.22 | -1.18 | 0.79 | 0.92
Trip10 (GeneID 106628) | no change with or without drug | -0.79 | 0.17 | -0.79 | 0.87
Ermn (GeneID 77767) | no change with or without drug | -0.45 | 1.01 | -1.01 | 0.9
Orc1 (GeneID 18392) | no change with or without drug | -1.24 | -0.51 | -0.9 | 0.83
Tmem63c (GeneID 217733) | no change with or without drug | -0.67 | -1.35 | 0.34 | 0.88
Hirip3 (GeneID 233876) | no change with or without drug | -0.67 | -0.84 | 0 | 0.88
Fam243 (GeneID 75328) | no change with or without drug | -0.67 | 1.52 | -1.46 | 0.88
Mrgprx3-ps (GeneID 100502859) | no change with or without drug | -1.8 | 0.34 | -2.02 | 0.78
Or10j5 (GeneID 18313) | no change with or without drug | 0.34 | -0.84 | 1.12 | 0.97
Grik3 (GeneID 14807) | no change with or without drug | 1.35 | -1.18 | 2.47 | 1.06
Aip (GeneID 11632) | no change with or without drug | -0.67 | -0.51 | -0.22 | 0.88
Grm2 (GeneID 108068) | no change with or without drug | 1.35 | 0.84 | 0.9 | 1.06
Blvra (GeneID 109778) | no change with or without drug | 0 | 0.51 | -0.22 | 0.94
Psmf1 (GeneID 228769) | no change with or without drug | 0.22 | 1.35 | -0.56 | 0.96
Fbxo8 (GeneID 50753) | no change with or without drug | 0.79 | 1.85 | -0.34 | 1.01
Ceacam11 (GeneID 66996) | no change with or without drug | -0.67 | 0.17 | -0.67 | 0.88
Slc25a39 (GeneID 68066) | no change with or without drug | -1.12 | -0.17 | -1.01 | 0.84
Kti12 (GeneID 100087) | no change with or without drug | -0.45 | -0.51 | 0 | 0.9
Bhlhe22 (GeneID 59058) | no change with or without drug | 0.22 | -0.17 | 0.45 | 0.96
Sh2d7 (GeneID 244885) | no change with or without drug | -0.67 | 1.35 | -1.46 | 0.88
Cela3b (GeneID 67868) | no change with or without drug | 0 | 0.17 | 0 | 0.94
Pdzk1 (GeneID 59020) | no change with or without drug | -0.34 | 0.17 | -0.34 | 0.91
Srgn (GeneID 19073) | no change with or without drug | 0 | 1.18 | -0.67 | 0.94
Loxhd1 (GeneID 240411) | no change with or without drug | 0.22 | -0.84 | 1.01 | 0.96
Kansl2 (GeneID 69612) | no change with or without drug | 1.12 | 1.35 | 0.34 | 1.04
Mucl2 (GeneID 20770) | no change with or without drug | -0.9 | -0.51 | -0.56 | 0.86
Synpo2 (GeneID 118449) | no change with or without drug | 1.12 | 0.84 | 0.67 | 1.04
Ccs (GeneID 12460) | no change with or without drug | -0.45 | 0.17 | -0.45 | 0.9
Mtap (GeneID 66902) | no change with or without drug | 0.34 | 0.34 | 0.22 | 0.97
Hmox1 (GeneID 15368) | no change with or without drug | -1.46 | -0.67 | -1.01 | 0.81
Fcho2 (GeneID 218503) | high cell count without drug only | 1.35 | 2.19 | 0 | 1.06
Tprkb (GeneID 69786) | no change with or without drug | -0.56 | -0.17 | -0.34 | 0.89
Lpar6 (GeneID 67168) | no change with or without drug | 0.22 | 0.34 | 0.11 | 0.96
Vps26c (GeneID 13185) | no change with or without drug | 0.9 | 0.51 | 0.67 | 1.02
Ephx3 (GeneID 71932) | no change with or without drug | -0.67 | 0.17 | -0.67 | 0.88
Slc38a4 (GeneID 69354) | no change with or without drug | -0.79 | -0.51 | -0.34 | 0.87
Lcn4 (GeneID 16821) | no change with or without drug | 1.12 | 0.84 | 0.67 | 1.04
Or5w11 (GeneID 258652) | no change with or without drug | 1.01 | 0.17 | 1.01 | 1.03
F9 (GeneID 14071) | no change with or without drug | -0.56 | 0 | -0.45 | 0.89
Ddx41 (GeneID 72935) | no change with or without drug | 0.22 | -1.18 | 1.24 | 0.96
Cutc (GeneID 66388) | no change with or without drug | 0.45 | 0.84 | 0 | 0.98
Idnk (GeneID 75731) | no change with or without drug | 1.12 | 0.51 | 0.9 | 1.04

4 entries from above, reformatted:
target,combined z-score class,viability z-score with doxorubicin,viability z-score without drug,z-score of drug to no-drug ratio,doxorubicin viability vs non-targeting
Pla2g5 (GeneID 18784),no change with or without drug,1.12,0.84,0.67,1.04
Npc1l1 (GeneID 237636),no change with or without drug,-1.8,-0.67,-1.35,0.78
Rnase2b (GeneID 54159),high cell count without drug only,1.12,3.54,-0.9,1.04
Paqr9 (GeneID 75552),high cell count without drug only,0.22,2.53,-1.24,0.96
